Source: article PMC8672915
These are yes or no findings as the source states them, for the method shown. In cells and extracts the contact can be indirect. Some results given as binding are weak or reduced against the parent protein; the word gives no strength. For some of these results: Where a sequence is shown, tags or fusion partners need not be part of it.

By UniProt entry, the sequences of proteins in these tests, tags left out.
UniProt Q7Z434: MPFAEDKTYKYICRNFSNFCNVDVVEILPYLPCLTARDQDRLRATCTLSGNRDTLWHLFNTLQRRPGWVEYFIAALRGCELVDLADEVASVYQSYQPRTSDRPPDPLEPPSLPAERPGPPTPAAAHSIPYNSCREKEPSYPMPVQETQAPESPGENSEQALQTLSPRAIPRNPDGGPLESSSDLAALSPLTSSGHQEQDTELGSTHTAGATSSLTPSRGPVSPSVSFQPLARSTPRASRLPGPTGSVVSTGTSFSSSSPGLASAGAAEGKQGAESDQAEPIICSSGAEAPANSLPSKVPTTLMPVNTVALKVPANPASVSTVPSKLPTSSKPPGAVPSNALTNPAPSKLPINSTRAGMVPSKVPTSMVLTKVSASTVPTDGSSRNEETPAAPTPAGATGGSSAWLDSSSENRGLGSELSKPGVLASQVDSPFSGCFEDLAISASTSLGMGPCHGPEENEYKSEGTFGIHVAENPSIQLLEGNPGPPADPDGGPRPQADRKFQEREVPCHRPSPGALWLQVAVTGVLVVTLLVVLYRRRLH
UniProt Q92918: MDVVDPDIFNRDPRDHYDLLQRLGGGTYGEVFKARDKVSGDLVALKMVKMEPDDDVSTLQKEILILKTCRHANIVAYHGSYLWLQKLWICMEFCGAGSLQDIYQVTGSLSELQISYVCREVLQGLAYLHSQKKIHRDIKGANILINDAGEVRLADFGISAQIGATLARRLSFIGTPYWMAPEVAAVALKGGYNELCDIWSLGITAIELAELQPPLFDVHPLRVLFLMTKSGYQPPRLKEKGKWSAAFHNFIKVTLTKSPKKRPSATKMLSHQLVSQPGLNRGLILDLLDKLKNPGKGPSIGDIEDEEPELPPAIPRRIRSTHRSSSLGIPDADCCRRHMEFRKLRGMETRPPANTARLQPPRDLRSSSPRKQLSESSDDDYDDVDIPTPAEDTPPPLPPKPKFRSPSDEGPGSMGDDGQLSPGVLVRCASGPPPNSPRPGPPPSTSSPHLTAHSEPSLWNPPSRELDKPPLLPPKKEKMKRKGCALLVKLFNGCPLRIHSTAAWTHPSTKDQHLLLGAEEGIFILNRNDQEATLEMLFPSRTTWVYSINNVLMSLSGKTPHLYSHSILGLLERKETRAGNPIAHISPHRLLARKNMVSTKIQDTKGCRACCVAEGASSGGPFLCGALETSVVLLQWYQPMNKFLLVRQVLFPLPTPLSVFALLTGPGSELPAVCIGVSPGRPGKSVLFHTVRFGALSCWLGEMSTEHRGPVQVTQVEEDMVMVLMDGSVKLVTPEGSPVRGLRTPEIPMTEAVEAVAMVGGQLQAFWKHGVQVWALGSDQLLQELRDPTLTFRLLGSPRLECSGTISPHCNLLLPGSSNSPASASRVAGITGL

Columns and labels:
Test in all cases: co-IP; 293T cells co-transfected with tagged plasmids (8 μg each), in Fig. 7A treated with SeV or not for 10 h; Triton lysis buffer (1% Triton, 20 mM Tris-HCl pH 7.5, 150 mM NaCl, 1 mM EDTA); immunoprecipitated with anti-Flag and protein G/A-Sepharose overnight at 4°C; washed with lysis buffer containing 1 M NaCl; immunoblotting
[1] = target: T1, RIG-I, human, Flag- or HA-tagged, expressed in 293T cells (human) (UniProt O95786)
T1 sequence: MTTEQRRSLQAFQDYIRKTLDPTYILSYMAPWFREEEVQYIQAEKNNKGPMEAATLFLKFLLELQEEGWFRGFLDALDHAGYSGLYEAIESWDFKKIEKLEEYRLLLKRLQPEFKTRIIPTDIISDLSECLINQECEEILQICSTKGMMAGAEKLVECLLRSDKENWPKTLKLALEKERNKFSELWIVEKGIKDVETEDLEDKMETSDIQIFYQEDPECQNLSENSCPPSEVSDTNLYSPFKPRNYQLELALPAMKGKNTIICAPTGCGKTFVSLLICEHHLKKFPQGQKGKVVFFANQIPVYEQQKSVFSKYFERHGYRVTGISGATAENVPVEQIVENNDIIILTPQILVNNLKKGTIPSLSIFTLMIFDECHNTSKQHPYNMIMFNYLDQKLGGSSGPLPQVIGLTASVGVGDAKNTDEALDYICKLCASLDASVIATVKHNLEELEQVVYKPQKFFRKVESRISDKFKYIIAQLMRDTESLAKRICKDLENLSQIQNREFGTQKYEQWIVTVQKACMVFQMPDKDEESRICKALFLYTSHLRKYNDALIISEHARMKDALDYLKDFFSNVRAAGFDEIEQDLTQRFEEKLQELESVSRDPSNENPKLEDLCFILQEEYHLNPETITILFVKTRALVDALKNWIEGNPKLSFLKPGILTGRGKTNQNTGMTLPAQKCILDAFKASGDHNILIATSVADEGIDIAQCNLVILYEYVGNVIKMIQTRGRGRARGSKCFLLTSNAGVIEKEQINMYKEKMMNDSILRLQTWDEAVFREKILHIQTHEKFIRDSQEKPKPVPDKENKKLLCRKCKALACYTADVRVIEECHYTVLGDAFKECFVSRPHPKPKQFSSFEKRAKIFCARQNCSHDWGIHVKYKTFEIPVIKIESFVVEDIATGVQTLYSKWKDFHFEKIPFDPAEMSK

[2] = target: T2, IκB kinase-ε (IKKε), human, Flag- or HA-tagged, expressed in 293T cells (human) (UniProt Q14164)
T2 sequence: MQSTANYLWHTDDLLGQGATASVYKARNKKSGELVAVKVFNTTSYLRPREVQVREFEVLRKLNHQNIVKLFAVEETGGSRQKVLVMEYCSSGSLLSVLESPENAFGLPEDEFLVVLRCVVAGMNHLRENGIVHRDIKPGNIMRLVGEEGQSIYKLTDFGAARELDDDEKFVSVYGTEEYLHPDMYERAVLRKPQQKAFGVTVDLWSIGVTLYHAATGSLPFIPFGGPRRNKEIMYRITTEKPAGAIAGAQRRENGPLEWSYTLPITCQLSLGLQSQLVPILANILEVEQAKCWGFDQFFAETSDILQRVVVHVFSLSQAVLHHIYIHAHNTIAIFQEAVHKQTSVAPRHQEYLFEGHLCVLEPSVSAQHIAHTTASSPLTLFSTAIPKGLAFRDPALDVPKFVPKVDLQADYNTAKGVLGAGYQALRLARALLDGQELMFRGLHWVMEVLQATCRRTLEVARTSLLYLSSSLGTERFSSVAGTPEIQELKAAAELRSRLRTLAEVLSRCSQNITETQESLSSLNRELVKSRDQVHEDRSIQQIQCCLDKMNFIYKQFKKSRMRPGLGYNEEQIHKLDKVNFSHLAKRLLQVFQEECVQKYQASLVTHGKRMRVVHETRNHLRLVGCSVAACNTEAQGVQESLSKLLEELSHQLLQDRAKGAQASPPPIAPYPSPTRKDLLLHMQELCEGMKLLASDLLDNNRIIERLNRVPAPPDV

[3] = target: MAVS, human, Flag- or HA-tagged, expressed in 293T cells (human) (UniProt Q7Z434)
[4] = target: T3, TBK1, human, Flag- or HA-tagged, expressed in 293T cells (human) (UniProt Q9UHD2)
T3 sequence: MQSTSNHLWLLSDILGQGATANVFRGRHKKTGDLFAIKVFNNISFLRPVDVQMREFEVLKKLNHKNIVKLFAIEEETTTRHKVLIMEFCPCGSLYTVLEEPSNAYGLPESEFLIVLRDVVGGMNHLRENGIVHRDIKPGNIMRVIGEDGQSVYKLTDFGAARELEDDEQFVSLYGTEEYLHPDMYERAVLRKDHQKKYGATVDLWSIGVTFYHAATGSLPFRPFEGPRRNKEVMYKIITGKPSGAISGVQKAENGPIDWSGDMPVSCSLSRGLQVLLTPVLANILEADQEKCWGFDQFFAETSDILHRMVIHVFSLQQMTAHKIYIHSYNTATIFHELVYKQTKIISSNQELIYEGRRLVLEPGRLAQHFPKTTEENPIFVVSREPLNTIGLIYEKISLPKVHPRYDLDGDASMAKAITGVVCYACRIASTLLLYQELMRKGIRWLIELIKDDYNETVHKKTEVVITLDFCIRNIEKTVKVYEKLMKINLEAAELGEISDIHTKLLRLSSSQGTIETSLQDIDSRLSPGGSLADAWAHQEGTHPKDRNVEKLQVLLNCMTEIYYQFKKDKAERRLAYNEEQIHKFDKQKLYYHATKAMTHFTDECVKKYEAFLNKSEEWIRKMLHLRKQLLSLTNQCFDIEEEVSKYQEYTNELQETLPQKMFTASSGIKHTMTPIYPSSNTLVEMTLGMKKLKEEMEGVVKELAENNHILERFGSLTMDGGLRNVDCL

binding [1]: binds
binding [2]: binds
binding [3]: binds
binding [4]: binds
Substance: MAP4K1, full-length human, Flag- or HA-tagged, expressed in 293T cells (co-immunoprecipitation of Fig. 1A) (from UniProt Q92918 1-833)
